The other results are listed elsewhere or left out. These are further read-outs of the screen, such as a control signal, another cell line or another target. No call is given for them. Compounds called inactive in the main read-out are mostly missing here. Words in brackets tell the shape of the fitted curve; partial curves, single points and poor fits give uncertain potencies.
Experiment: qHTS Assay to Find Inhibitors of Chronic Active B-Cell Receptor Signaling
Conditions: ABC-DLBCL IkBa-CBG/CBR reporter, luminescence ratio (green luciferase fused to IkBa over red control in TMD8 lymphoma cells), 4 h
Procedure, shortened: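 Doxycycline induced both beetle luciferases in TMD8 lymphoma cells; IKK-driven degradation limits the IkappaBalpha-fused green signal, while red luminescence normalises for cell number and nonspecific effects. Compounds tested up to 46 uM, 4 hrs.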

[1] = measured here: CBR red luminescence, cell number

## Cc1c(NC(=O)c2cc(-n3cnnc3)ccc2Cl)cccc1-c1nc2ccccc2s1
[1]
  AC50: 16.4 µM [falling, partial curve, poor fit]
Measured here: IkBa-CBG green luminescence
  AC50: 7.31 µM [rising, partial curve, poor fit]

## O=[N+]([O-])c1ccc(SCc2c(F)cccc2Cl)nc1
[1]
  AC50: 7.08 µM [rising, partial curve, poor fit]

## COc1ccc(S(=O)(=O)N2CCCCC2)cc1NC(=O)Cn1cnc2c1c(=O)n(C)c(=O)n2C
[1]
  AC50: 20.6 µM [falling, partial curve, poor fit]

## Cc1nn(-c2nc3ccccc3[nH]2)c(N)c1-c1ccc(Cl)cc1
[1]
  AC50: 0.316 µM [rising, full curve, poor fit]

## CC(=NCc1cccc(Cl)c1)c1nc(-c2ccco2)oc1O
[1]
  AC50: 2.06 µM [falling, partial curve, poor fit]

## COc1ccc(NC(=O)C2CCN(C(=O)c3ccc(OC)cc3)CC2)cc1
[1]
  AC50: 0.651 µM [falling, full curve]

## CCOC(=O)c1c(N)n[nH]c1-c1ccccc1
[1]
  AC50: 32.6 µM [falling, single point]

## C/C(=N\Nc1nc(Cl)c(Cl)cc1Cl)c1ccc(S(=O)(=O)NCc2ccco2)cc1
[1]
  AC50: 29.1 µM [falling, single point]

## CCc1cc(C(=O)c2ccc(C)cc2)c(NC(=O)CCl)s1
[1]
  AC50: 23.1 µM [falling, single point]

## O=C(CCc1ccccc1)NNC(=O)c1cc(Cl)ccc1O
[1]
  AC50: 20 µM [falling, single point]

## O=C(CCN1C(=O)c2ccccc2C1=O)NC(=S)Nc1ccccc1
[1]
  AC50: 2.91 µM [falling, partial curve, poor fit]

## COc1cccc(NC(=O)Nc2ccccc2SC)c1
[1]
  AC50: 15.8 µM [falling, partial curve, poor fit]

## C=CCC[C@H](Cc1ccc(F)cc1)C(=O)OC[C@@H](NC(=O)[C@@H](CC=C)CC(=O)N(CCO)Cc1ccccc1)C(C)(C)C
[1]
  AC50: 23.1 µM [falling, partial curve, poor fit]

## CC(=NC1CC1)c1c(-c2ccccc2)[nH]n(-c2nc3ccccc3s2)c1=O
[1]
  AC50: 2.06 µM [rising, full curve]

## CCC1CCc2c(sc(NC(C)=O)c2C#N)C1 (stereo not drawn)
[1]
  AC50: 8.2 µM [rising, partial curve]

## Cc1cccc(C)c1NC(=O)c1ccc2c(c1)CCN2S(C)(=O)=O
[1]
  AC50: 0.708 µM [rising, full curve, poor fit]

## O=C(CSc1nnc(CNc2ccc(Cl)cc2)n1Cc1ccccc1)NCc1ccco1
[1]
  AC50: 35.5 µM [falling, partial curve, poor fit]

From PubChem BioAssay AID493014 (National Center for Advancing Translational Sciences (NCATS), 2011)
